Assay results as given in ChEMBL document CHEMBL4316593 (Eur J Med Chem, 2019).
This continues a long series; more values of the same kind are listed elsewhere.

Columns and labels:
Assay type in all cases: cell-based
Settings in all cases: U-87MG ATCC
[1] = Inhibition of RTK/PI3K/AKT/mTOR signaling in human U87 cells assessed as down regulation of EIF4EBP2 gene expression at cytotoxic IC50 measured after 48 hrs relative to control
[2] = Inhibition of RTK/PI3K/AKT/mTOR signaling in human U87 cells assessed as down regulation of SNHG3 gene expression at cytotoxic IC50 measured after 48 hrs relative to control
[3] = Inhibition of RTK/PI3K/AKT/mTOR signaling in human U87 cells assessed as down regulation of SEMA3C gene expression at cytotoxic IC50 measured after 48 hrs relative to control
[4] = Inhibition of RTK/PI3K/AKT/mTOR signaling in human U87 cells assessed as down regulation of TAB3 gene expression at cytotoxic IC50 measured after 48 hrs relative to control
[5] = Inhibition of RTK/PI3K/AKT/mTOR signaling in human U87 cells assessed as down regulation of TNFRSF12A gene expression at cytotoxic IC50 measured after 48 hrs relative to control
[6] = Inhibition of RTK/PI3K/AKT/mTOR signaling in human U87 cells assessed as down regulation of PLEKHH1 gene expression at cytotoxic IC50 measured after 48 hrs relative to control
[7] = Inhibition of RTK/PI3K/AKT/mTOR signaling in human U87 cells assessed as down regulation of ACO2 gene expression at cytotoxic IC50 measured after 48 hrs relative to control
[8] = Inhibition of RTK/PI3K/AKT/mTOR signaling in human U87 cells assessed as down regulation of WNK1 gene expression at cytotoxic IC50 measured after 48 hrs relative to control
[9] = Inhibition of RTK/PI3K/AKT/mTOR signaling in human U87 cells assessed as down regulation of NBPF1 gene expression at cytotoxic IC50 measured after 48 hrs relative to control
[10] = Inhibition of RTK/PI3K/AKT/mTOR signaling in human U87 cells assessed as down regulation of C21orf91 gene expression at cytotoxic IC50 measured after 48 hrs relative to control
[11] = Inhibition of RTK/PI3K/AKT/mTOR signaling in human U87 cells assessed as down regulation of WASHC4 gene expression at cytotoxic IC50 measured after 48 hrs relative to control
[12] = Inhibition of RTK/PI3K/AKT/mTOR signaling in human U87 cells assessed as down regulation of EZH1 gene expression at cytotoxic IC50 measured after 48 hrs relative to control
[13] = Inhibition of RTK/PI3K/AKT/mTOR signaling in human U87 cells assessed as down regulation of RB1CC1 gene expression at cytotoxic IC50 measured after 48 hrs relative to control
[14] = Inhibition of RTK/PI3K/AKT/mTOR signaling in human U87 cells assessed as down regulation of ZNF654 gene expression at cytotoxic IC50 measured after 48 hrs relative to control
[15] = Inhibition of RTK/PI3K/AKT/mTOR signaling in human U87 cells assessed as down regulation of SNX19 gene expression at cytotoxic IC50 measured after 48 hrs relative to control
[16] = Inhibition of RTK/PI3K/AKT/mTOR signaling in human U87 cells assessed as down regulation of ZZEF1 gene expression at cytotoxic IC50 measured after 48 hrs relative to control
[17] = Inhibition of RTK/PI3K/AKT/mTOR signaling in human U87 cells assessed as down regulation of REPS1 gene expression at cytotoxic IC50 measured after 48 hrs relative to control
[18] = Inhibition of RTK/PI3K/AKT/mTOR signaling in human U87 cells assessed as down regulation of KDM1B gene expression at cytotoxic IC50 measured after 48 hrs relative to control
[19] = Inhibition of RTK/PI3K/AKT/mTOR signaling in human U87 cells assessed as down regulation of ATP6AP2 gene expression at cytotoxic IC50 measured after 48 hrs relative to control
[20] = Inhibition of RTK/PI3K/AKT/mTOR signaling in human U87 cells assessed as up regulation of KRT86 gene expression at cytotoxic IC50 measured after 48 hrs relative to control
[21] = Inhibition of RTK/PI3K/AKT/mTOR signaling in human U87 cells assessed as up regulation of CCDC110 gene expression at cytotoxic IC50 measured after 48 hrs relative to control
[22] = Inhibition of RTK/PI3K/AKT/mTOR signaling in human U87 cells assessed as up regulation of ANKRD37 gene expression at cytotoxic IC50 measured after 48 hrs relative to control
[23] = Inhibition of RTK/PI3K/AKT/mTOR signaling in human U87 cells assessed as up regulation of kallikrein related peptidase 6 gene expression at cytotoxic IC50 measured after 48 hrs relative to control
[24] = Inhibition of RTK/PI3K/AKT/mTOR signaling in human U87 cells assessed as up regulation of nuclear factor I C gene expression at cytotoxic IC50 measured after 48 hrs relative to control
[25] = Inhibition of RTK/PI3K/AKT/mTOR signaling in human U87 cells assessed as up regulation of Pvt1 oncogene (non-protein coding) gene expression at cytotoxic IC50 measured after 48 hrs relative to control
[26] = Inhibition of RTK/PI3K/AKT/mTOR signaling in human U87 cells assessed as up regulation of RALBP1 associated Eps domain containing 2 gene expression at cytotoxic IC50 measured after 48 hrs relative to control
[27] = Inhibition of RTK/PI3K/AKT/mTOR signaling in human U87 cells assessed as up regulation of HECT and RLD domain containing E3 ubiquitin protein ligase 3 gene expression at cytotoxic IC50 measured after 48 hrs relative to control
[28] = Inhibition of RTK/PI3K/AKT/mTOR signaling in human U87 cells assessed as up regulation of methyltransferase like 26 gene expression at cytotoxic IC50 measured after 48 hrs relative to control
[29] = Inhibition of RTK/PI3K/AKT/mTOR signaling in human U87 cells assessed as up regulation of potassium channel tetramerization domain containing 11 gene expression at cytotoxic IC50 measured after 48 hrs relative to control
[30] = Inhibition of RTK/PI3K/AKT/mTOR signaling in human U87 cells assessed as up regulation of phosphofructokinase, liver type gene expression at cytotoxic IC50 measured after 48 hrs relative to control
[31] = Inhibition of RTK/PI3K/AKT/mTOR signaling in human U87 cells assessed as up regulation of TPBG gene expression at cytotoxic IC50 measured after 48 hrs relative to control
[32] = Inhibition of RTK/PI3K/AKT/mTOR signaling in human U87 cells assessed as up regulation of ANXA6 gene expression at cytotoxic IC50 measured after 48 hrs relative to control

Which results are given for CC(=O)C(=NNc1ccccc1C#N)C(C)=O?
log2FC [1]: -1.04; log2FC [2]: -1.49; log2FC [3]: -1.27; log2FC [4]: -1.08; log2FC [5]: -0.985; log2FC [6]: -0.843; log2FC [7]: -0.803; log2FC [8]: -0.791; log2FC [9]: -0.782; log2FC [10]: -0.769; log2FC [11]: -0.758; log2FC [12]: -0.729; log2FC [13]: -0.697; log2FC [14]: -0.659; log2FC [15]: -0.601; log2FC [16]: -0.579; log2FC [17]: -0.538; log2FC [18]: -0.525; log2FC [19]: -0.39; log2FC [20]: 3.1; log2FC [21]: 2.45; log2FC [22]: 1.7; log2FC [23]: 1.33; log2FC [24]: 1.17; log2FC [25]: 1.16; log2FC [26]: 1.11; log2FC [27]: 1.01; log2FC [28]: 0.989; log2FC [29]: 0.891; log2FC [30]: 0.717; log2FC [31]: 0.467; log2FC [32]: 0.466
